This note sets out measurements from patent publication US20250325677A1, “STAT6 DEGRADERS” (Gilead Sciences, Inc., priority 2024, published 2025).

Chains of the proteins cited; added tags and fusions are not shown.
UniProt P42226, whole entry: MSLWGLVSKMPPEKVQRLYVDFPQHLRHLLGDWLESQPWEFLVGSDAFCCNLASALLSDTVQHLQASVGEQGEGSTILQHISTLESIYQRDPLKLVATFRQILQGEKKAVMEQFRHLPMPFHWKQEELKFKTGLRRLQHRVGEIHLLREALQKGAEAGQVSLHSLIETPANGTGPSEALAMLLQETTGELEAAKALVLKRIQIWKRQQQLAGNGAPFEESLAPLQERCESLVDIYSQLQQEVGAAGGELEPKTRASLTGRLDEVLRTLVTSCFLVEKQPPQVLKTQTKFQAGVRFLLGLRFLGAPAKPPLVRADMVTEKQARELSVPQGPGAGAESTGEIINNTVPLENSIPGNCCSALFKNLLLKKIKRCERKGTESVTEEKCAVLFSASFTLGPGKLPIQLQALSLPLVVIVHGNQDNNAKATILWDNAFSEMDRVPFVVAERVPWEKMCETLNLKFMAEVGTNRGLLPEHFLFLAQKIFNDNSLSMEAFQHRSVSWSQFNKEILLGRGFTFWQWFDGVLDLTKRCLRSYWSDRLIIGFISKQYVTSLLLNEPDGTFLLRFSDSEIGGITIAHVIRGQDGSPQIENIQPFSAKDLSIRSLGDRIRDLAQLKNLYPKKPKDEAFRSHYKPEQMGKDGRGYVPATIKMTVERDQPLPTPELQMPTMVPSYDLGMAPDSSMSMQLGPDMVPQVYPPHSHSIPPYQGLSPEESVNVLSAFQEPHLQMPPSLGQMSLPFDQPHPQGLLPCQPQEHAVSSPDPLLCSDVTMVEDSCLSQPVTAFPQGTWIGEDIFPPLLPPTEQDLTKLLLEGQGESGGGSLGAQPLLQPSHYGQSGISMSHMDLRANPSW

The target in the assay is STAT6 (Homo sapiens (Human), UniProt P42226). Kind of assay: STAT6 degrader assay (HiBiT, HeLa LgBiT clone 4.14). To be noted: read-out: STAT6 degradation DC50; HeLa LgBiT clone 4.14, 4-24 h; geometric mean; given for compounds with >80% Emax. It counts as cell-based. Here is the method: This was a HiBit based assay. A HeLa cell line stably transfected with a small protein, LgBit (Large Bit) was obtained from Promega. These cells express endogenous STAT6. A small 11 amino acid gene sequence (HiBiT) was inserted in the STAT6 gene using CRISPR technology. Once STAT6 protein is expressed in the cells, the HiBiT sequence will bind the LgBit in the cells resulting in a functional NanoBiT protein, giving a luminescent tag to STAT6, see FIG. 2.
Single cell clones were prepared and the clone 4.14 was selected for the assay based on that clone showing high luminescence, high STAT6 phosphorylation upon stimulation with IL-4, and inhibition of luminescence when cells were treated with STAT6 siRNA.
HeLa LgBiT clone 4.14 cells were suspended in DMEM with 10% FCS, 1% Pen/Strep, Na-pyrovate and Hygromycin B, at a concentration of 1.25*105 cells pr mL. 5000 cells were added pr well of a 384 well plate and 20 nL of compound was added by Echo® liquid handler. NN6394A (terfenadine, a toxic compound) was added to control wells at 50 μM concentration to establish the assay window. In these wells the cells are dead which equals 100% degradation of STAT6. […]
The luminescence in the wells as a measure of non-degraded STAT6 was measured in a plate reader (BMG Pherastar FSX). The measured DC50 (in nM) was determined. […]
On the technique in general: With HiBiT, luminescence reflects the tagged protein that the partner subunit can reach.

The structures given here were assigned with low confidence; some may be wrong.

One may read the DC50 as the concentration at which degradation of the target reaches its halfway point. Consider `CNc1ccc(-c2ccnc3c2cc([C@H](C)N2CC=C(c4c(C)cc(C(=O)N5CCC(CN6CCN(Cc7ccc8c(c7)n(C7CC7)c(=O)n8C7CCC(=O)NC7=O)C[C@@H]6C)CC5)cc4F)CC2)n3C)cn1` (stereo partly shown), for which the DC50 is 1.5 nM.
